Measured values taken from article PMC8339435.
Results are given in words; binding and its absence hold for the method and conditions named. Binding seen in cells or lysates may run through a third protein. Some results given as binding are weak or reduced against the parent protein; the word gives no strength. Tags and fused reporters may be left off the sequences shown.

Protein sequences, listed by entry. Tags and fused reporters are not part of them.
UniProt Q14974: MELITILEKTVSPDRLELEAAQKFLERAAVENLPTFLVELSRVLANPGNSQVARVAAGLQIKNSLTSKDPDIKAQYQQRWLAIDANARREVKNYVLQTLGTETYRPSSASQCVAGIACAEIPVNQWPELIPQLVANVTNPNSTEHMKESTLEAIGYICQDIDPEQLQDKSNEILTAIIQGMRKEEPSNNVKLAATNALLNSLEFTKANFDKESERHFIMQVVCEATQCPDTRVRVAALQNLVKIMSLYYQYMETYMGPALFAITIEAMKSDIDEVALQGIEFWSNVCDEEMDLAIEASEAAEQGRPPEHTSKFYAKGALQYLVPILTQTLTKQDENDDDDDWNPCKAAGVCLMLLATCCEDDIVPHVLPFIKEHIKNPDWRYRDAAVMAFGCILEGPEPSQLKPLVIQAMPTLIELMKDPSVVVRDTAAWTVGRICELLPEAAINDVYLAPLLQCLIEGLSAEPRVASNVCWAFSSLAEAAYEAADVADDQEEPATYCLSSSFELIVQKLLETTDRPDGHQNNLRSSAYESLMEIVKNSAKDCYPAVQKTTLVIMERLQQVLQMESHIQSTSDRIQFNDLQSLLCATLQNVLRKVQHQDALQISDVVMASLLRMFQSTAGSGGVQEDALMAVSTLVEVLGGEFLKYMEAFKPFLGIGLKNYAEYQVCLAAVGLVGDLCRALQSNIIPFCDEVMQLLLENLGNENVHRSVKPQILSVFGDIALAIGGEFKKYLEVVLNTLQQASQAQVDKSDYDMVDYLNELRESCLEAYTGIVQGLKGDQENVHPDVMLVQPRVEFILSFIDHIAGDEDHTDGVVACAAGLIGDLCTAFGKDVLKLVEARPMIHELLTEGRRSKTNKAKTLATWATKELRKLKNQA

Molecular target: 3 × Flag-importin β1 (human) (UniProt Q14974)
Test: co-IP

B1: EYFP-BFLF2 (protein, UniProt P0CK47 1-318)
chain: MAPVTPDAVNARQQRPADPALRRLMHPHHRNYTASKASAHSVKSVSRCGKSRSELGRMERVGSVARSICSRHTRHGVDRSHFSLRDFFRGISANFELGKDFLREMNTPIHVSEAVFLPLSLCTLSPGRCLRLSPFGHSLTLGSHCEICINRSQVHVPQEFSSTQLSFFNNVHKIIPNKTFYVSLLSSSPSAVKAGLSQPSLLYAYLVTGHFCGTICPIFSTNGKGRLIMHLLLQGTSLHIPETCLKLLCENIGPTYELAVDLVGDAFCIKVSPRDTVYEKAVNVDEDAIYEAIKDLECGDELRLQIINYTQLILENKQ
binding: binds
